Laboratory results taken from EP0325044A2, “Pharmacologically active cyclic peptide” (BEECHAM GROUP PLC, priority 1987, dated 1989).
Not every detail of the peptide structures is certain; ends, links or a residue may be inferred. Where a SMILES comes first, the peptide text is derived from it.

Tested on: Acid/Pepsin induced duodenal damage
Test: Acid/Pepsin induced duodenal damage in anaesthetised rats
Type: in vivo, Male Wistar rats
Conditions: i.v. infusion via the jugular vein throughout the experiment, subjective scoring system of 0 to 10, group size of 6, p<0.01 >0.001 (Mann-Whitney 'U' test)

| Structure (SMILES) | reduction in duodenal damage (dose of 450nmol/kg/h) [%] | reduction in duodenal damage (dose of 50nmol/kg/h) [%] |
| --- | --- | --- |
| CC(C)C[C@@H]1NC(=O)[C@H](Cc2ccc(O)cc2)NC(=O)[C@H](CCCCN)NC(=O)[C@H](CCCCN)NC(=O)[C@H](C(C)C)NC(=O)[C@@H](C)NC1=O [Compound El, Cyclo-[D-Alanyl-L-Valyl-L-Lysyl-L-Lysyl-L-Tyrosyl-L-Leucine]] (HELM PEPTIDE1{K.K.Y.L.[dA].V}$PEPTIDE1,PEPTIDE1,1:R1-6:R2$$$V2.0) | 51 |  |
| CC(C)C[C@H]1NC(=O)[C@H](Cc2ccc(O)cc2)NC(=O)[C@H](CCCCN)NC(=O)[C@H](CCCCN)NC(=O)[C@@H](C(C)C)NC(=O)[C@@H](C)NC1=O [compound E2, Cyclo-[D-Alanyl-D-Valyl-L-Lysyl-L-Lysyl-L-Tyrosyl-D-Leucine]] (HELM PEPTIDE1{K.K.Y.[dL].[dA].[dV]}$PEPTIDE1,PEPTIDE1,1:R1-6:R2$$$V2.0) |  | 45 |
